# In PubChem BioAssay AID651814 (National Center for Advancing Translational Sciences (NCATS), 2012):
# The chains behind the UniProt entries cited, without tags or fusion partners. Where a name states a change or a piece, a line headed by the entry shows the natural chain unless it says otherwise.
# UniProt Q8IUX4: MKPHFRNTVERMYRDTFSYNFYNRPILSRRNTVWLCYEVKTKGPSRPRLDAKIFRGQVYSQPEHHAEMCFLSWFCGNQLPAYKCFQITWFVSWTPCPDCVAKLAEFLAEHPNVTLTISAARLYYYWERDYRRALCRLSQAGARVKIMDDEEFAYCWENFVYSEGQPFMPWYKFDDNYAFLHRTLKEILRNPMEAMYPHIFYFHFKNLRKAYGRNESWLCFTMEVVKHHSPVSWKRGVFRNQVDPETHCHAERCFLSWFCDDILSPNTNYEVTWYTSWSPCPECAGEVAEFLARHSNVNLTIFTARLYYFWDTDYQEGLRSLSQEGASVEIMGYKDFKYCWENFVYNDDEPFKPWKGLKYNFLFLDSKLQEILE
# Out of some 2,100 compounds screened, about 590 (28%) were called active. This list was built around the results that the source calls inconclusive (neither active nor inactive); the mix of calls is not that of the screen. Calls follow the shape of the dose curve; as a rule, active = well fitted inhibition curve with a large enough effect; inconclusive = small, poorly fitted or top-dose-only effect; inactive = flat fitted curve, though single readings scatter. Potencies beside an inconclusive call are fits to weak or partial responses and may not hold up.
# Molecular target: DNA dC->dU-editing enzyme APOBEC-3F (Homo sapiens) (UniProt Q8IUX4)
# Assay: qHTS for inhibitors of Vif-A3F interactions: Cherry picks; also: nearly all actives have a fitted effect of over 70% in size;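 as to max response: % of control where 0% means no effect; active compounds raise eYFP fluorescence by blocking Vif-driven A3F loss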
# Settings: HeLa A3F-eYFP + Vif (tagged APOBEC3F with the HIV-1 protein that degrades it), eYFP fluorescence, 24 h
# Outline: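 HeLa cells stably expressing A3F-eYFP plus Vif, cultured overnight, then exposed to compounds at several concentrations for 24 h at 37 deg C. Reduced Vif-driven degradation read as rising eYFP fluorescence (488 nm ex/500-530 nm em) by laser-scanning cytometry; MG132 as positive control.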
# Potency is read from the fitted curve at half-maximal effect.
SMILES,max response,Potency
O=C(NC(=S)Nc1c(Cl)cc(Cl)cc1Cl)c1ccccc1,inactive: -0.292%,
CN(C)c1ccc(/C=C/c2ccnc3ccc(N)cc23)cc1,,active: 20.6 µM
COc1cc(-c2noc(C)c2C#Cc2ccc(N)cc2)cc(OC)c1OC,,"inconclusive: 0.498 µM [inhibitor, full curve]"
CCOc1ccccc1Nc1nnc(-c2cc3cc(Cl)ccc3oc2=O)s1,,"inconclusive: 2.59 µM [inhibitor, full curve]"
CCOC(=O)c1ccc(NC(=O)CSc2nc(-c3cccs3)cc(C(F)(F)F)c2C#N)cc1,,active: 16.4 µM
COc1ccc2ccccc2c1C1NC(=O)c2ccccc2N1 (configuration not stated),,"inconclusive: 2.8 µM [inhibitor, full curve]"
O=C1C(=Cc2ccccc2[N+](=O)[O-])Cc2ccccc21,,active: 18.4 µM
ClCc1nc2ccccc2n1Cc1ccccc1,,active: 18.4 µM
COc1cc(C(=O)N2CC(=O)Nc3ccccc32)cc(OC)c1OC,,"inconclusive: 22.3 µM [inhibitor, single point]"
CC1=NN(c2ccccc2)C(=O)/C1=C/C=C/c1ccccc1,,"inconclusive: 15.8 µM [inhibitor, single point]"
Cn1c(=S)c2[nH]c(SCCN3CCCC3)nc2n(C)c1=O,inactive: 0.53%,
Cc1cc2nc3s/c(=C/c4ccc(-c5ccccc5C(=O)O)o4)c(=O)n3c2cc1C,,active: 20.6 µM
COc1cc(/C=C2/SC(=S)N(Cc3ccccc3)C2=O)cc(OC)c1O,,"inconclusive: 14 µM [inhibitor, single point]"
N#CC1=C(N)Oc2ccc3ccc(O)cc3c2C1c1ccsc1 (configuration not stated),inactive: -15.9%,
Cc1ccc2nc(C)c(C(=O)NN=C3CCCCCC3)n2c1,inactive: -15.2%,
CCOC(=O)c1[nH]c(C)c(C(=O)Nc2cc(OC)ccc2OC)c1C,,"inconclusive: 1.58 µM [inhibitor, full curve]"
Cc1[nH][nH]c(=O)c1C(c1c(C)[nH][nH]c1=O)c1cn(Cc2ccccc2Cl)c2ccccc12,inactive: -24.8%,
Fc1ccc(-c2cnn3c(-c4cccs4)ccnc23)cc1,,active: 4.98 µM
CN1/C(=C/C=C(/C#N)C(N)=O)C(C)(C)c2ccccc21,,active: 6.27 µM
Cc1ccc2c(/C=C/c3ccc(N(C)C)cc3)ccnc2c1,,active: 18.4 µM
CC1=Nc2ccc(C)cc2/C1=C/c1c(N)n2oc(C)cc2nc1=O,,"inconclusive: 23.1 µM [inhibitor, single point]"
Cn1ncc(N=Cc2c(O)ccc3ccccc23)c1C(=O)Nc1cccc(Cl)c1,,"inconclusive: 9.2 µM [inhibitor, partial curve]"
O=C(N/N=C/c1cccs1)c1n[nH]c2c1CCC2,,"inconclusive: 3.14 µM [inhibitor, full curve]"
CCOC(=O)Nc1ccc2nc(-c3cscn3)[nH]c2c1,,"inconclusive: 6.27 µM [inhibitor, partial curve]"

SMILES,max response,Potency
Cc1cc(NC(=O)c2ccco2)cc(-c2nc3cc(Cl)ccc3o2)c1O,,"inconclusive: 20.6 µM [inhibitor, single point]"
Cc1ccc2ccc3cc(C(=O)Nc4ccc(C)c(F)c4)nc3c2[nH]1,,"inconclusive: 18.4 µM [inhibitor, single point]"
COc1ccccc1N1C(=O)C2C(C(=O)c3ccccc3)=NN(c3ccc(C)cc3)C2C1=O (configuration not stated),,"inconclusive: 15.8 µM [inhibitor, single point]"
N#C/C(=C\c1ccc(Cl)cc1)c1nc2ncccc2[nH]1,,"inconclusive: 14 µM [inhibitor, single point]"
O=c1[nH]c2ccccc2n2c(C(F)(F)F)nnc12,inactive: -23.2%,
COCCCNc1nc2ccccc2nc1NS(=O)(=O)c1ccccc1,inactive: -2.62%,
CC(=O)c1sc2nc(-c3cccs3)cc(C(F)(F)F)c2c1N,,active: 7.31 µM
COc1cccc(NC(=O)c2oc3ccc(S(=O)(=O)N4CCC5(CC4)OCCO5)cc3c2C)c1,inactive: -28.1%,
C/C(=N\Nc1nc(C)cc(-c2ccccc2)n1)c1ccc(F)cc1,inactive: -6.16%,
COc1ccc(NS(=O)(=O)c2cc(NC(=O)c3ccc(=O)[nH]c3)ccc2N2CCCC2)cc1,,"inconclusive: 17.7 µM [inhibitor, partial curve]"
Cc1ccc(Cn2c(SCc3ccc(C(=O)NC4CCCC4)cc3)nc3ccncc32)cc1,inactive: -0.957%,
Cc1ccc(NC(=S)N/N=C2\CCCCC2C)cc1 (configuration not stated),inactive: 0.346%,
CC(C)OC(=O)c1cc(C(=O)c2cc(F)ccc2O)coc1=N,,active: 23.1 µM
COCCN1C(=O)/C(=C/c2ccc(N3CCCC3)cc2C)SC1=S,,active: 2.59 µM
O=C(Nc1nc2ccccc2s1)c1ccc([N+](=O)[O-])o1,inactive: -26.2%,
O=C(COc1ccc(C(=O)c2ccccc2)cc1)NCc1ccc(F)cc1,,"inconclusive: 1.98 µM [inhibitor, single point]"
Cc1ccc(C(=O)N/C(=C/c2ccc(-c3ccc([N+](=O)[O-])cc3)o2)C(=O)NCCCN(C)C)cc1,,"inconclusive: 14 µM [inhibitor, single point]"
COc1cc(/C=C2\CC(C(C)(C)C)C/C(=C\c3cc(OC)c(OC)c(OC)c3)C2=O)cc(OC)c1OC (configuration not stated),,"inconclusive: 7.9 µM [inhibitor, partial curve]"
C=C1C(=O)O[C@H]2C1CC[C@@](C)(O)C13C=CC(C)(C21)C1(C3)C(=O)O[C@@H]2C3C(C)=CCC3[C@](C)(O)C[C@H](OC(C)=O)C21 (some centres not stated),inactive: -25.3%,
COc1ccc2nc(SCC(=O)N3CC(=O)Nc4ccccc43)c(C#N)cc2c1,,active: 10.3 µM
COc1ccccc1NS(=O)(=O)c1cc([N+](=O)[O-])ccc1N/N=C/c1c[nH]c2ccccc12,,active: 13 µM
COc1ccc(NS(=O)(=O)c2cc([N+](=O)[O-])ccc2N/N=C/c2c(C)[nH]c3ccccc23)cc1,,active: 16.4 µM
CCOC(=O)c1c(CC(C)C)csc1/N=C/C1C(=O)CCCC1=O,inactive: -3.21%,
CCOc1ccc(NC(=O)Cn2c(=O)n(Cc3ccc(C(=O)NCc4ccc(C)cc4)cc3)c(=O)c3ccccc32)cc1,,active: 11.6 µM

# Among those listed so far, these have two or more sulfur atoms:
SMILES,max response,Potency
CCOC(=O)c1ccc(NC(=O)CSc2nc(-c3cccs3)cc(C(F)(F)F)c2C#N)cc1,,active: 16.4 µM
Cn1c(=S)c2[nH]c(SCCN3CCCC3)nc2n(C)c1=O,inactive: 0.53%,
COc1cc(/C=C2/SC(=S)N(Cc3ccccc3)C2=O)cc(OC)c1O,,"inconclusive: 14 µM [inhibitor, single point]"
CC(=O)c1sc2nc(-c3cccs3)cc(C(F)(F)F)c2c1N,,active: 7.31 µM
COCCN1C(=O)/C(=C/c2ccc(N3CCCC3)cc2C)SC1=S,,active: 2.59 µM

# Continuation.

SMILES,max response,Potency
Cc1cc(N2CCN(C)CC2)ccc1NC(=O)c1c2c(nc3ccccc13)CCN(Cc1ccccc1)C2,inactive: -29.2%,
O=C(C[n+]1cccc2cccc(O)c21)c1ccc2ccccc2c1,,"inconclusive: 11.6 µM [inhibitor, partial curve, poor fit]"
N#CC1=C(N)Oc2ccc3ccccc3c2C1c1cccnc1 (configuration not stated),,"inconclusive: 3.14 µM [inhibitor, full curve]"
CCCN1CCc2c(sc(NC(=O)c3ccc(S(=O)(=O)N4CCN(C(=O)OCC)CC4)cc3)c2C(N)=O)C1,,"inconclusive: 23.1 µM [inhibitor, single point]"
COc1ccc(NC(=O)N(Cc2cc3ccc(OC)cc3[nH]c2=O)CC2CCCO2)cc1 (configuration not stated),,"inconclusive: 17.7 µM [inhibitor, single point]"
CCOC(=O)/C(C#N)=N\Nc1cc(Cl)ccc1OC,,"inconclusive: 29.1 µM [inhibitor, single point]"
CN(C)C(=O)c1cccc(-c2cnc3c(NC=O)cc(-c4ccccc4F)cn23)c1,inactive: -4.66%,
COc1ccc(-c2cc(-c3cccs3)nc3sc(C#N)c(N)c23)cc1,,"inconclusive: 29.1 µM [inhibitor, single point]"
Cc1c(C(=O)C(=O)N2CC=C(c3ccccc3)CC2)c2ccccc2n1C,,"inconclusive: 2.8 µM [inhibitor, full curve]"
CCN(CC)c1ccc(/C=C/c2ccccn2)cc1,,active: 5.17 µM
COc1ccc(NC(=S)Nc2ncccc2C)c(OC)c1,inactive: 0.806%,
N#CCC(=O)N/N=C/c1ccc(N2N=C(c3ccccc3)CC2c2ccccc2)cc1 (configuration not stated),,active: 18.4 µM
N#C/C(=C/c1ccc(N2CCCCCC2)o1)c1cccc(F)c1,inactive: -26.2%,
COc1cccc(NC(=O)c2sc3nc(C)c(C(=O)Nc4ccc(C)cc4C)c(-c4ccco4)c3c2N)c1,inactive: -5.66%,
Cc1cc(C)cc(NC(=S)NC(=O)C2CC2)c1,inactive: -4.35%,
Cc1ccc(NC(=O)CSc2nc3ccc(Nc4nc(N5CCOCC5)nc(N5CCOCC5)n4)cc3s2)cc1,,"inconclusive: 3.66 µM [inhibitor, partial curve, poor fit]"
Cc1ccc(S(=O)(=O)Nc2cc(-c3nn(C)c(=O)c4ccccc34)ccc2N2CCOCC2)cc1,,"inconclusive: 14 µM [inhibitor, partial curve]"
CC(OC(=O)/C(C#N)=C/c1ccc(N(C)C)cc1)C(=O)N(C)Cc1ccccc1 (configuration not stated),,"inconclusive: 18.4 µM [inhibitor, single point]"
Cc1ccc(Nc2nc(Cl)c(C=O)s2)cc1Cl,,active: 23.1 µM
COc1cc(C(=O)Nc2ccc3ccccc3c2)cc(OC)c1OC,,"inconclusive: 1.98 µM [inhibitor, full curve]"
O=C(c1ccccc1)c1c2c(cc3sc4ccccc4[n+]13)-c1cccc3cccc-2c13,,"inconclusive: 8.86 µM [inhibitor, partial curve]"
CCN(CC)c1nc(C)c(C(=S)Nc2cc([N+](=O)[O-])ccc2Cl)s1,inactive: -3.83%,
O=C(O)c1cccc(-c2ccc(/C=N/Nc3ccc([N+](=O)[O-])cc3)o2)c1,,active: 18.4 µM
C=C1C(=O)O[C@@H]2[C@H]1[C@@H](OC(=O)/C(C)=C/C)C/C(C)=C\C(=O)/C=C(\C)[C@@H]2O,inactive: -29.6%,

# Sorted by count of non-hydrogen atoms (descending): part of the list above.
SMILES,max response,Potency
Cc1cc(N2CCN(C)CC2)ccc1NC(=O)c1c2c(nc3ccccc13)CCN(Cc1ccccc1)C2,inactive: -29.2%,
COc1ccc(NC(=O)N(Cc2cc3ccc(OC)cc3[nH]c2=O)CC2CCCO2)cc1 (configuration not stated),,"inconclusive: 17.7 µM [inhibitor, single point]"
N#C/C(=C/c1ccc(N2CCCCCC2)o1)c1cccc(F)c1,inactive: -26.2%,
